Experimental data taken from US20110158980A1, “METHODS TO TREAT AND SCREEN FOR AGENTS TO TREAT OBESITY” (TRUSTEES OF TUFTS COLLEGE, priority 2008, published 2011).
At least one compound was matched to its structure with a doubt left.

Assays:
3T3-L1 adipocytes [1] = experiment: Metabolic flux analysis (stoichiometric model) of adipocyte intermediary metabolism; type: cell-based; settings: oxamate; day 12 post-induction
Method: (§1) 3T3-L1 preadipocytes were plated onto 24-well plates and expanded in preadipocyte growth medium consisting of DMEM supplemented with calf serum (10% v/v), penicillin and streptomycin. Medium was replenished every other day. Two days post-confluence, the cells were induced to differentiate using an adipogenic cocktail (1 μg/ml insulin, 0.5 mM isobutylmethylxanthine, and 1 μM dexamethasone) added to a basal medium (DMEM with 10% fetal bovine serum and penicillin/streptomycin). After 48 hrs, the first medium was replaced with a second induction medium consisting of the basal adipocyte medium supplemented with only insulin. […] This basal medium was replenished every other day during the remainder of the culture experiments.
A stoichiometric model of adipocyte central carbon metabolism was constructed as described previously (Si Y, Yoon J, Lee K. American journal of physiology 2007; 292:E1637-46). The model consisted of the major pathways of central carbon metabolism (Table 1). Intracellular fluxes were estimated by solving a constrained non-linear optimization problem with stoichiometric and thermodynamic constraints (Nolan R P, Fenley A P, Lee K. Metab Eng 2006; 8:30-45).

3T3-L1 adipocytes [2] = experiment: Metabolite assays (TG, FFA, glucose, lactate, glycerol) on cell lysates and spent medium; type: cell-based
Method: as §1
Metabolite measurements were performed both on cell lysates and spent medium samples as described previously (Si Y, Yoon J, Lee K. American journal of physiology 2007; 292:E1637-46). Cells were lysed in situ with an 0.1% SDS buffer and sonicated. Immediately after collection, the spent medium samples were cleaned of cell debris by a brief centrifugation step. Free glycerol, TG and free fatty acids (FFAs) were measured using enzymatic assay kits (SIGMA™). Glucose and lactate concentrations were measured using the methods of Trinder (Trinder P. J Clin Pathol 1969; 22:158-61) and Loomis (Loomis M E. J Lab Clin Med 1961; 57:966-9), respectively. Amino acids were quantified by HPLC using fluorescence-based detection following pre-column derivatization of primary or secondary amines with 6-aminoquinolyl-N-hydroxysuccinimidyl-carbamate (Cohen S A, De Antonis K M. J Chromatogr A 1994; 661:25-34). All metabolite data were normalized by the corresponding cell sample DNA content, which was determined with a fluorescence-based assay using the Hoechst dye.

3T3-L1 adipocytes [3] = experiment: Oxygen uptake rate by fiber-optic microsensor; type: cell-based; settings: oxamate treatment; day 12 post-induction
Method: The dissolved oxygen in the culture medium was measured using a needle-type fiber-optic microsensor (MicroxTX3, Presens, Regensburg, Germany). The concentration data were related to the oxygen uptake rate (OUR) using the following diffusion-reaction model:
where c0 and hb are, respectively, the oxygen concentration at medium surface and height of the medium in the culture well. The bottom of the culture plate (and cell monolayer) is at z=−hb. Integrating equation (1) and applying the boundary conditions we obtain: […]
where hm and cm are, respectively, the distance between the probe and the medium surface and the measured oxygen concentration in the medium at the probe depth. The oxygen uptake rate was calculated by dividing the flux JO2 by the cell density. The measured oxygen uptake rate was used for relative comparisons between the treatment groups and not used for MFA in order to independently confirm the calculated oxygen uptake rate.

3T3-L1 cells = experiment: Oil Red O staining of intracellular lipid; type: cell-based; settings: day 12 post-induction; 20 mM oxamate; 5 mM and 10 mM phenylacetate
Krebs ascites cells = settings: 80 mM oxamate; cited from earlier work

With `NC(=O)C(=O)O` [oxamate] the “Effect on reactions of the TCA cycle and oxidative phosphorylation” value (3T3-L1 adipocytes [1]) was “not significantly affected”, the “Estimated oxygen uptake (flux model) vs control” value (3T3-L1 adipocytes [1]) was “no statistical difference” and the “Inhibitory effect on lactate dehydrogenase, dose dependence” value (3T3-L1 adipocytes [2]; data not shown) was “dose-dependent”. For the same compound, the “Effect on intracellular free fatty acid concentration” value (3T3-L1 adipocytes [2]; oxamate, day 12 post-induction, FIG. 2A) was “unaffected”, the “Inhibition of the targeted reactions, dose dependence” value (3T3-L1 adipocytes [2]; targeted reactions: lactate dehydrogenase (oxamate), pyruvate carboxylase (phenylacetate)) was “dose-dependent” and the “Effect on oxygen consumption” value (3T3-L1 adipocytes [3]) was “not significantly affected”. For the same compound, the “Lipid content by Oil Red O staining vs untreated controls” value (3T3-L1 cells) was “contained less lipid than the untreated controls” and the “Reduction of the activity of the PPP” value (Krebs ascites cells) was 50%.
